# At least one compound was matched to its structure with a doubt left.
# Test system: panel of viruses
# Type: cell-based
smiles,measurement,value
O=C(O)/C=C/c1ccc(O)cc1 [coumaric acid],antiviral activity,has not demonstrated any antiviral activity

# From patent publication US9931316B2 (priority 2015, dated 2018)
